Source: paper PMC10869718
No constants are given. Whether binding was seen depends on the method and setting. In cells and extracts the contact can be indirect. Some binding calls cover weakened binding; strength is not graded here.

Sequences of proteins named here, by UniProt entry; tags and fusion partners are left off.
UniProt P46937: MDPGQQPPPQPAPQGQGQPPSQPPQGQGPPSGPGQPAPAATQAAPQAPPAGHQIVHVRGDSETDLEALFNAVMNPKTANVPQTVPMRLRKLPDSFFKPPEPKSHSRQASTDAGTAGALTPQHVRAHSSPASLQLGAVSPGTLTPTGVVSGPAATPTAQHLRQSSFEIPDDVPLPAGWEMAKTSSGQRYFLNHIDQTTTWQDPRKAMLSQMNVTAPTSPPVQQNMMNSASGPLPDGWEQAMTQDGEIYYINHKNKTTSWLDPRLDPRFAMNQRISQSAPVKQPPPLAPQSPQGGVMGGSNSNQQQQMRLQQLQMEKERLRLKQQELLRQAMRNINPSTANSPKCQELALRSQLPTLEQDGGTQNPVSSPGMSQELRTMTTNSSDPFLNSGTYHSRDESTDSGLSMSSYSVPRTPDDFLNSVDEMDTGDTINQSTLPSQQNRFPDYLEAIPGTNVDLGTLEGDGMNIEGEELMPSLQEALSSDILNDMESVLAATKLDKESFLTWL
UniProt P21333: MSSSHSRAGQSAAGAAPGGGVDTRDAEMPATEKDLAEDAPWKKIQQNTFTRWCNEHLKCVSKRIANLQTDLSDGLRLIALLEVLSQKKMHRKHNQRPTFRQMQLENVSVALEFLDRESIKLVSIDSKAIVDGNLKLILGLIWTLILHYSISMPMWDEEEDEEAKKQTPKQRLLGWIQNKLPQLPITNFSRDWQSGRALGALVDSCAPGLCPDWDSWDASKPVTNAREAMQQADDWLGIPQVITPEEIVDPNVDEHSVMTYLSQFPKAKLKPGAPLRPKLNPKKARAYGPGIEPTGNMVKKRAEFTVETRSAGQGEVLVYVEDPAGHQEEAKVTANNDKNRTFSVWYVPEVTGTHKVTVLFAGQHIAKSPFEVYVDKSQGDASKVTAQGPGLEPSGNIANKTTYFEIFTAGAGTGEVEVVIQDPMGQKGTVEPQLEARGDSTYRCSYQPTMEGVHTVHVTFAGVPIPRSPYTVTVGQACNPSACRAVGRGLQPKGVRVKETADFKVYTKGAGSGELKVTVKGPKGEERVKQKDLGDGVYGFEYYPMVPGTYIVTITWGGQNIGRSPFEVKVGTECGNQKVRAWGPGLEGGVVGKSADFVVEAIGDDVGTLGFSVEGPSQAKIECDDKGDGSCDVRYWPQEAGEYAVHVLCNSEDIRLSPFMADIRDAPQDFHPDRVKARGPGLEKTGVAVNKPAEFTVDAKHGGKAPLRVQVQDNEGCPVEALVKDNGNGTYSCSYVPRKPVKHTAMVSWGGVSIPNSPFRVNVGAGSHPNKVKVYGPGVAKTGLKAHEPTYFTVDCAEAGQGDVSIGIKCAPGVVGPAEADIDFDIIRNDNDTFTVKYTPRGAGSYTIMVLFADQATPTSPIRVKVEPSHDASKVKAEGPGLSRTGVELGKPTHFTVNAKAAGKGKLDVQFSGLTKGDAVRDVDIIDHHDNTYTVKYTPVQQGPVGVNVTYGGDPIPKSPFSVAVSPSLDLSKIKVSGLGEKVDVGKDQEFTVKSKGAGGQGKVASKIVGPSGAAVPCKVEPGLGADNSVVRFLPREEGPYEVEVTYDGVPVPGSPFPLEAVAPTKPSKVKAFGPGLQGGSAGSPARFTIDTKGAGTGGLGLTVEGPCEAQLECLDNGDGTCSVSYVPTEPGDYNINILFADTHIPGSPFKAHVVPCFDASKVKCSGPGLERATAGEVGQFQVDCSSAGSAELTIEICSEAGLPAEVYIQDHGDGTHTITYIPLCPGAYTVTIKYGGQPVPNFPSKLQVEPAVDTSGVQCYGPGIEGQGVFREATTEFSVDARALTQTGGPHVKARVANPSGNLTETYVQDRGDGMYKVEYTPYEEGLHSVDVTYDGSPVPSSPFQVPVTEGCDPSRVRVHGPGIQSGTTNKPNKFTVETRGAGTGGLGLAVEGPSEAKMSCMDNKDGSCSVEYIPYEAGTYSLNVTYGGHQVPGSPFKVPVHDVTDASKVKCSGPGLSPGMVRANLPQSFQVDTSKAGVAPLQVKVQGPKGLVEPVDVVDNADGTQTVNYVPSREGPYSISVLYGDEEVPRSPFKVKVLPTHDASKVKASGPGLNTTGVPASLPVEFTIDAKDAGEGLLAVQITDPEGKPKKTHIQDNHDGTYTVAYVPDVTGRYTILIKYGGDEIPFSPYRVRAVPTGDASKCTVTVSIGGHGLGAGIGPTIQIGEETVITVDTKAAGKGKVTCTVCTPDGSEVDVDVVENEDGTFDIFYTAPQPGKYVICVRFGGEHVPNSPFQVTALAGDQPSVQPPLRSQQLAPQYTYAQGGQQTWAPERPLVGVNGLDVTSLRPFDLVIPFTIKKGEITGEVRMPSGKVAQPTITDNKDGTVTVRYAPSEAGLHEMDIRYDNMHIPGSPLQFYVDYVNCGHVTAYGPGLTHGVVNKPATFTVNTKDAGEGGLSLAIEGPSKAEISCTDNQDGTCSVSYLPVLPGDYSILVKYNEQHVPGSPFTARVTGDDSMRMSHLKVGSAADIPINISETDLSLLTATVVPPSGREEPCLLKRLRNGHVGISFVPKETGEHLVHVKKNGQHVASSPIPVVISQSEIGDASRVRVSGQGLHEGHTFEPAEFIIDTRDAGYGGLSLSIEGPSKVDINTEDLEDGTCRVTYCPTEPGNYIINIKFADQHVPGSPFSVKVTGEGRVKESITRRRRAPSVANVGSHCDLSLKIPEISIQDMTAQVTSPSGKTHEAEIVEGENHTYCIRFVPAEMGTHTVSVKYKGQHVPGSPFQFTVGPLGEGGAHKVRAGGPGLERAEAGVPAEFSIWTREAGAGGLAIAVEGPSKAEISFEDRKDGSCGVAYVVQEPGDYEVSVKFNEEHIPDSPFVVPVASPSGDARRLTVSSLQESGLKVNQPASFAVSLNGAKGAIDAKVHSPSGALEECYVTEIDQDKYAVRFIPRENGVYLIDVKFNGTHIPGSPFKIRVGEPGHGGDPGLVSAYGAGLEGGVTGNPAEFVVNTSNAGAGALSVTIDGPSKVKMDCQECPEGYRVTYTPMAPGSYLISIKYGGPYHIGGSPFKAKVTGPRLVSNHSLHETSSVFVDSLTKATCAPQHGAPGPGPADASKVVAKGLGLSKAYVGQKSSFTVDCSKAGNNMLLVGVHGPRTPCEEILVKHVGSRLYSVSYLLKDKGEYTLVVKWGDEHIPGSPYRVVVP
UniProt P06239: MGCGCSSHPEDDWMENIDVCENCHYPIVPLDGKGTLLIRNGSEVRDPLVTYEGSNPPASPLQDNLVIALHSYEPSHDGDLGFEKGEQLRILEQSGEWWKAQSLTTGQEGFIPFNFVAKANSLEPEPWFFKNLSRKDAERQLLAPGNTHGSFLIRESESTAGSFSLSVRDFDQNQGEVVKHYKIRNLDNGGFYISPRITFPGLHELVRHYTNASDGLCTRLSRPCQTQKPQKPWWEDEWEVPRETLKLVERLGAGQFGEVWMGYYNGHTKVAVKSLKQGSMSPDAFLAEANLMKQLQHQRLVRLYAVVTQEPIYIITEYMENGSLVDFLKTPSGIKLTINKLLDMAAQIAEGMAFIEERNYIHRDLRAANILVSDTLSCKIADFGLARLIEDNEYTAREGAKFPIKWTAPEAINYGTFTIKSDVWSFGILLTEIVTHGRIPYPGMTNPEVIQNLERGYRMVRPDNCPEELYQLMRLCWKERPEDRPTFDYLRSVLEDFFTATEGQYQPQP
UniProt P43403: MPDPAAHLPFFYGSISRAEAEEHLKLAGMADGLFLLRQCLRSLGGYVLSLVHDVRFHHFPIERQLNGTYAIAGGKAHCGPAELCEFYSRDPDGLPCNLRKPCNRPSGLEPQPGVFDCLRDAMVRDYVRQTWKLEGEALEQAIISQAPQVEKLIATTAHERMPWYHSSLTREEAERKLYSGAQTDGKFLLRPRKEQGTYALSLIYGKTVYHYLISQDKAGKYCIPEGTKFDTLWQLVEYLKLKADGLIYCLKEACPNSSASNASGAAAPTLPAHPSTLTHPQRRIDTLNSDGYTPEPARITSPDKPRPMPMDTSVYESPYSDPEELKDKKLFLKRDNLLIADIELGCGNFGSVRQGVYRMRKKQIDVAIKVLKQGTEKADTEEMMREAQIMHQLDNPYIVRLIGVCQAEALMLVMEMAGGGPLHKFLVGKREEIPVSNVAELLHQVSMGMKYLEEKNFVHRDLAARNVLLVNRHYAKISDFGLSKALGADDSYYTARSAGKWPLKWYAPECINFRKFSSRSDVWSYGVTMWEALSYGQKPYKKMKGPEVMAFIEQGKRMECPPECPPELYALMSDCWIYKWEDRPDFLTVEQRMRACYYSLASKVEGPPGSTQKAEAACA

How the values were obtained:
YAP-Flag = YAP-Flag (UniProt P46937); assay: co-IP; 293T cells transfected with YAP-Flag and LCK-Myc or ZAP70-HA vector; immunoprecipitation of YAP (anti-Flag antibody, Protein-A agarose, 4 °C), immunoblot
filamin A = filamin A (UniProt P21333); assay: co-IP; co-immunoprecipitation of perforin and FLNA (Supplementary Fig. 2i); cells and bait not given

Row | binding (YAP-Flag) | binding (filamin A) | Molecule
1 | binds | – | LCK-Myc (from UniProt P06239 1-509) (enzyme)
2 | binds | – | ZAP70-HA (from UniProt P43403 1-619) (enzyme)
3 | – | no binding | perforin (protein, UniProt P14222 22-555) PCHTAARSECKRSHKFVPGAWLAGEGVDVTSLRRSGSFPVDTQRFLRPDGTCTLCENALQEGTLQRLPLALTNWRAQGSGCQRHVTRAKVSSTEAVARDAARSIRNDWKVGLDVTPKPTSNVHVSVAGSHSQAANFAAQKTHQDQYSFSTDTVECRFYSFHVVHTPPLHPDFKRALGDLPHHFNASTQPAYLRLISNYGTHFIRAVELGGRISALTALRTCELALEGLTDNEVEDCLTVEAQVNIGIHGSISAEAKACEEKKKKHKMTASFHQTYRERHSEVVGGHHTSINDLLFGIQAGPEQYSAWVNSLPGSPGLVDYTLEPLHVLLDSQDPRREALRRALSQYLTDRARWRDCSRPCPPGRQKSPRDPCQCVCHGSAVTTQDCCPRQRGLAQLEVTFIQAWGLWGDWFTATDAYVKLFFGGQELRTSTVWDNNNPIWSVRLDFGDVLLATGGPLRLQVWDQDSGRDDDLLGTCDQAPKSGSHEVRCNLNHGHLKFRYHARCLPHLGGGTCLDYVPQMLLGEPPGNRSGAVW
